PubChem BioAssay AID1259308, NCATS – 2017
Screen: 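Candidate targets for better recombinant protein yield in mammalian cells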 (primary screen). Cells: human HEK293 embryonic kidney cells stably expressing firefly luciferase (HEK-CMV-Luc2-Hygro). Reagent: single siRNA against human genes, 0.8 pmol siRNA per well. Duration: 72 h. Detection: 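Luciferase light (ONE-Glo) measured on one replicate plate set and viability (CellTiter-Glo) on the other, scaled to a negative control siRNA, with robust z-scores and luciferase per cell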. Scale: total luciferase, z-score and total luciferase, % of control: higher = more reporter protein produced; luciferase per cell, z-score: higher = more reporter output per viable cell; viable cells, % of control: higher = more viable cells. Call rule: 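An siRNA counts as active if its total luciferase robust z-score exceeds 3; genes with two or more such siRNAs out of three were retested with fresh siRNAs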. Calls: active = raised luciferase; inactive = no rise.
Shown is a random part of about 59,000 reagents tested. Over the whole deposit, about 1,510 (2.6%) are marked active. 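Calls use total luciferase alone and ignore viability, so some active siRNAs may act by altering cell number.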 Reagents against one gene are numbered here. Reagent sequences are not shown.

| gene | siRNA no. | total luciferase, z-score | total luciferase, % of control | luciferase per cell, z-score | viable cells, % of control | call |
| --- | --- | --- | --- | --- | --- | --- |
| ACTL9 | 1 | 1.42 | 110 | 0.786 | 100 | inactive |
| ACTL9 | 2 | 0.61 | 94 | 1.11 | 78.5 | inactive |
| ACTL9 | 3 | 0.224 | 86.3 | 0.664 | 81 | inactive |
| AGO4 | 1 | -1.26 | 56.9 | -1.06 | 84 | inactive |
| AGO4 | 2 | -1.68 | 48.5 | -1.11 | 72.6 | inactive |
| AGO4 | 3 | -1.08 | 60.3 | -1.3 | 95 | inactive |
| ZCCHC12 | 1 | 0.313 | 88.1 | 0.846 | 78.8 | inactive |
| ZCCHC12 | 2 | 1.09 | 103 | 2.28 | 63.5 | inactive |
| ZCCHC12 | 3 | -0.45 | 72.9 | -0.292 | 88 | inactive |
| KCTD9 | 1 | -0.332 | 75.3 | -0.985 | 109 | inactive |
| KCTD9 | 2 | -1.3 | 56 | -0.863 | 78.5 | inactive |
| KCTD9 | 3 | -0.414 | 73.7 | -0.789 | 101 | inactive |
| SUMO1 | 1 | 0.835 | 98.5 | 1.11 | 82.1 | inactive |
| SUMO1 | 2 | -1.93 | 43.6 | -1.93 | 80.9 | inactive |
| SUMO1 | 3 | 0.952 | 101 | 1.24 | 81.3 | inactive |
| TAGLN2 | 1 | 0.783 | 97.5 | 0.0874 | 106 | inactive |
| TAGLN2 | 2 | 0.179 | 85.4 | 0.299 | 88.2 | inactive |
| TAGLN2 | 3 | 0.509 | 92 | -0.344 | 113 | inactive |

Reformatted: results already given
gene | siRNA no. | total luciferase, z-score | total luciferase, % of control | luciferase per cell, z-score | viable cells, % of control | call
AGO4 | 2 | -1.68 | 48.5 | -1.11 | 72.6 | inactive
AGO4 | 3 | -1.08 | 60.3 | -1.3 | 95 | inactive
ZCCHC12 | 1 | 0.313 | 88.1 | 0.846 | 78.8 | inactive
ZCCHC12 | 2 | 1.09 | 103 | 2.28 | 63.5 | inactive
ZCCHC12 | 3 | -0.45 | 72.9 | -0.292 | 88 | inactive
KCTD9 | 1 | -0.332 | 75.3 | -0.985 | 109 | inactive
KCTD9 | 2 | -1.3 | 56 | -0.863 | 78.5 | inactive

More records follow:
| gene | siRNA no. | total luciferase, z-score | total luciferase, % of control | luciferase per cell, z-score | viable cells, % of control | call |
| --- | --- | --- | --- | --- | --- | --- |
| MMP7 | 1 | 1.7 | 116 | 1.12 | 96.2 | inactive |
| MMP7 | 2 | -0.011 | 81.7 | -0.0354 | 92.1 | inactive |
| MMP7 | 3 | 0.0764 | 83.4 | -0.671 | 111 | inactive |
| ADRA2A | 1 | -0.965 | 62.7 | -0.781 | 86.1 | inactive |
| ADRA2A | 2 | 0.437 | 90.6 | -0.0564 | 103 | inactive |
| ADRA2A | 3 | -1.8 | 46.1 | -1.53 | 77 | inactive |
| FCF1 | 1 | -1.88 | 44.5 | -2.31 | 91.3 | inactive |
| FCF1 | 2 | -2.26 | 36.9 | -2.44 | 78.4 | inactive |
| FCF1 | 3 | -2.38 | 34.6 | -3.13 | 88.1 | inactive |
| KANK4 | 1 | 0.265 | 87.2 | 0.293 | 90.2 | inactive |
| KANK4 | 2 | -0.394 | 74.1 | 0.0205 | 82.3 | inactive |
| KANK4 | 3 | 2.1 | 124 | 2.5 | 71.5 | inactive |
| NUDT5 | 1 | 2 | 122 | 1.96 | 81.2 | inactive |
| NUDT5 | 2 | 1.1 | 104 | -0.362 | 128 | inactive |
| NUDT5 | 3 | -0.0604 | 80.7 | -0.223 | 95.6 | inactive |
| OSBPL9 | 1 | 0.51 | 92 | 0.0853 | 101 | inactive |
| OSBPL9 | 2 | 1.07 | 103 | 0.639 | 97.4 | inactive |
| OSBPL9 | 3 | -0.858 | 64.8 | -0.503 | 82.7 | inactive |
| CYP4F2 | 1 | -1.46 | 52.8 | -2.09 | 102 | inactive |
| CYP4F2 | 2 | 0.124 | 84.4 | -0.241 | 100 | inactive |
| CYP4F2 | 3 | -1 | 61.9 | -1.7 | 108 | inactive |
